Data from the supplement of paper PMC12823440, “Inhibitors supercharge kinase turnover through native proteolytic circuits” (Nature, 2025).
Counter-ions that a name gives are not always drawn. This is one part of the list. The calls rarely recur for the same compound in another form.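 Kinases, fused to nanoluciferase, were expressed in K562 cells; luminescence was measured every 4 h from 2 to 18 h as percent of control (DMSO = 100%, positive control = 0%). A time point is decreased if signal falls significantly (2 sigma). Hits were called by the authors by a rule that is not shown; the count of time points alone does not decide it.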

Sequences of proteins named here, by UniProt entry; tags and fusion partners are left off. A change or cut given only in a name is not applied to a line headed by its entry.
UniProt Q9Y616: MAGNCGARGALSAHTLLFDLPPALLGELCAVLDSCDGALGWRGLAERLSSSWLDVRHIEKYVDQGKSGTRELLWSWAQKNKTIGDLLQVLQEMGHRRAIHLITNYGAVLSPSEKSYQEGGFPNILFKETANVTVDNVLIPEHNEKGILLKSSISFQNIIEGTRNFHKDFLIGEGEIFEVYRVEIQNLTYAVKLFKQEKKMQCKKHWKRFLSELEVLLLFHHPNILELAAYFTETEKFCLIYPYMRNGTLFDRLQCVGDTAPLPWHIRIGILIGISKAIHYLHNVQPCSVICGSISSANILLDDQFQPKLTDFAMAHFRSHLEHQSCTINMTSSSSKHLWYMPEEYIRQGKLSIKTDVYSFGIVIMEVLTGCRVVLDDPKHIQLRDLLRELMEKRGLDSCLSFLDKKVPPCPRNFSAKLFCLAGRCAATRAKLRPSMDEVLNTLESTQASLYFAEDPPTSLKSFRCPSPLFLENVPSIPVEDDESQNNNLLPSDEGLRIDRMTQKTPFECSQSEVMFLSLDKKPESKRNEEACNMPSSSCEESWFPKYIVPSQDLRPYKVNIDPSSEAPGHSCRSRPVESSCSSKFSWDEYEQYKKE
UniProt P23458: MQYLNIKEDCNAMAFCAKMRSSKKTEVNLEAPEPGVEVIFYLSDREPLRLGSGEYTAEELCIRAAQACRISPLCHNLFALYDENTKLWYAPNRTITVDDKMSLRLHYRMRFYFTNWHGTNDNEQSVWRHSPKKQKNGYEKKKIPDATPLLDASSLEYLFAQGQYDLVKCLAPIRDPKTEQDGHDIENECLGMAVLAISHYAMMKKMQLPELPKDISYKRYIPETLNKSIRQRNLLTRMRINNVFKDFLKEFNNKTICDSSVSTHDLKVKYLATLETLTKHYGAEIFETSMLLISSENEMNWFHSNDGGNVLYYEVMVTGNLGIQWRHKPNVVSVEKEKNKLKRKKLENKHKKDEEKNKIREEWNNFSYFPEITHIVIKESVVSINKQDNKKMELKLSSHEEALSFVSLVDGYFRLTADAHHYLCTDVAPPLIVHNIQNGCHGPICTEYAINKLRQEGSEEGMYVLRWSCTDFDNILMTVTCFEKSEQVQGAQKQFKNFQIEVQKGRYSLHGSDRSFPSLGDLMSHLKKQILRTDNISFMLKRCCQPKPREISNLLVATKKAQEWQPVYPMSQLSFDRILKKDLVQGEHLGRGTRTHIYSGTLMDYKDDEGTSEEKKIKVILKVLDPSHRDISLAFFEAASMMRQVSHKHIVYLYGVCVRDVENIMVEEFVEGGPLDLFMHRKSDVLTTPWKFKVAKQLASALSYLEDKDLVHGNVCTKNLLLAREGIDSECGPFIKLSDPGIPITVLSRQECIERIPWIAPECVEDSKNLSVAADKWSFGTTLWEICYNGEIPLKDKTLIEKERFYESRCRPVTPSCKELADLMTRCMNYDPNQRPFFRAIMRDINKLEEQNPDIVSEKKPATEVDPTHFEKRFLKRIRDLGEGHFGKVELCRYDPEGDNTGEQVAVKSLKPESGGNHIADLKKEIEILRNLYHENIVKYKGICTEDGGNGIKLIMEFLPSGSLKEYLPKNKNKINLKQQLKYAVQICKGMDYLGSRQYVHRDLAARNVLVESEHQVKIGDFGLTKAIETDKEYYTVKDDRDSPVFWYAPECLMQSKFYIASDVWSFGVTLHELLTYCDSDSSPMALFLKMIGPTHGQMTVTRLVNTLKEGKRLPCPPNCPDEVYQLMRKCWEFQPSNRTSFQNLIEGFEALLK
UniProt P06239: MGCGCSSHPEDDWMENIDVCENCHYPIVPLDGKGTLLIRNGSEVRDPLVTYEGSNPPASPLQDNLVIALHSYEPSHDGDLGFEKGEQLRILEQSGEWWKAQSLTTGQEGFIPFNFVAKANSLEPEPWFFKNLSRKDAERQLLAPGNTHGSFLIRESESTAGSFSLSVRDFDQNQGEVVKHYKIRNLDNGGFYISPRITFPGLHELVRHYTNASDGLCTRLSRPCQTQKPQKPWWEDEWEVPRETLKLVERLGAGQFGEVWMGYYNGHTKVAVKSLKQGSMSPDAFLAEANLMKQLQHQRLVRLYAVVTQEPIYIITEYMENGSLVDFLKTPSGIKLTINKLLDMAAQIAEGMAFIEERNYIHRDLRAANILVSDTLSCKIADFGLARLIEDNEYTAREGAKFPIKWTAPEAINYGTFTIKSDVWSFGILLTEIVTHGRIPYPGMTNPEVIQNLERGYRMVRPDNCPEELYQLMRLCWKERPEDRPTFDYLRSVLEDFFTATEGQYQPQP
UniProt P53667: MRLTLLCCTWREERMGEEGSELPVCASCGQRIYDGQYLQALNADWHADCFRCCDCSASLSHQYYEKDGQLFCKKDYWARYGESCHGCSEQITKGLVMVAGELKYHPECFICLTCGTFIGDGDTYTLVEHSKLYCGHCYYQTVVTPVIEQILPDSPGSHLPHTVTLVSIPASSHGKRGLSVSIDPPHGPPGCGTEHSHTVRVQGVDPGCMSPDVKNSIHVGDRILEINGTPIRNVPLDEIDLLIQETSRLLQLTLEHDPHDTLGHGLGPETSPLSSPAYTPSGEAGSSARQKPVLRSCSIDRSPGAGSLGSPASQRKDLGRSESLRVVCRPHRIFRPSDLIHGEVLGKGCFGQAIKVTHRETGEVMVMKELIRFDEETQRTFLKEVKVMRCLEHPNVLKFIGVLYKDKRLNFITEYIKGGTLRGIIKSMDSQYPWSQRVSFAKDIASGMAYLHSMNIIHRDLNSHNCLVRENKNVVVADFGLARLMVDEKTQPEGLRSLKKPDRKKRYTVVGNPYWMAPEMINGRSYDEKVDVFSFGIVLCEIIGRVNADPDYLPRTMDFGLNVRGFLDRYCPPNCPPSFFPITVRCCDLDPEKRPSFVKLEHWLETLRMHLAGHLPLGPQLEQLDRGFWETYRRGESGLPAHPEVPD
UniProt P53671: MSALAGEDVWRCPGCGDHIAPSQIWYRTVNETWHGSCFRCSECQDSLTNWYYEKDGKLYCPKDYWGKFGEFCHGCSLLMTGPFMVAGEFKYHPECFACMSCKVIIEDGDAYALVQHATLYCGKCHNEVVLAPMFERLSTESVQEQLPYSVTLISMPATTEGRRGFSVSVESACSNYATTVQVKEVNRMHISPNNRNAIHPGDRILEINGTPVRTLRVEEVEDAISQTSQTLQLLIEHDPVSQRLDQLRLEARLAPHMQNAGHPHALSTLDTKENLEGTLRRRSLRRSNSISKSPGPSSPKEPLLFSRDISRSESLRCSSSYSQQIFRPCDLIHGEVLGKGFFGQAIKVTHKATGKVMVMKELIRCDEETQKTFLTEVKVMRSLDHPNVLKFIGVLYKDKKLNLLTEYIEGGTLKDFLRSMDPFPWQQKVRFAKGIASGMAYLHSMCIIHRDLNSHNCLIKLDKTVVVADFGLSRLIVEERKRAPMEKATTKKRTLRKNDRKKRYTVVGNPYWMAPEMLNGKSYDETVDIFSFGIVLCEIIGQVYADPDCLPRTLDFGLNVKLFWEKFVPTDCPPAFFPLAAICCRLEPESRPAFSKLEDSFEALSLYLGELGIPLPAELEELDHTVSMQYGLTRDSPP
UniProt Q8IWU2: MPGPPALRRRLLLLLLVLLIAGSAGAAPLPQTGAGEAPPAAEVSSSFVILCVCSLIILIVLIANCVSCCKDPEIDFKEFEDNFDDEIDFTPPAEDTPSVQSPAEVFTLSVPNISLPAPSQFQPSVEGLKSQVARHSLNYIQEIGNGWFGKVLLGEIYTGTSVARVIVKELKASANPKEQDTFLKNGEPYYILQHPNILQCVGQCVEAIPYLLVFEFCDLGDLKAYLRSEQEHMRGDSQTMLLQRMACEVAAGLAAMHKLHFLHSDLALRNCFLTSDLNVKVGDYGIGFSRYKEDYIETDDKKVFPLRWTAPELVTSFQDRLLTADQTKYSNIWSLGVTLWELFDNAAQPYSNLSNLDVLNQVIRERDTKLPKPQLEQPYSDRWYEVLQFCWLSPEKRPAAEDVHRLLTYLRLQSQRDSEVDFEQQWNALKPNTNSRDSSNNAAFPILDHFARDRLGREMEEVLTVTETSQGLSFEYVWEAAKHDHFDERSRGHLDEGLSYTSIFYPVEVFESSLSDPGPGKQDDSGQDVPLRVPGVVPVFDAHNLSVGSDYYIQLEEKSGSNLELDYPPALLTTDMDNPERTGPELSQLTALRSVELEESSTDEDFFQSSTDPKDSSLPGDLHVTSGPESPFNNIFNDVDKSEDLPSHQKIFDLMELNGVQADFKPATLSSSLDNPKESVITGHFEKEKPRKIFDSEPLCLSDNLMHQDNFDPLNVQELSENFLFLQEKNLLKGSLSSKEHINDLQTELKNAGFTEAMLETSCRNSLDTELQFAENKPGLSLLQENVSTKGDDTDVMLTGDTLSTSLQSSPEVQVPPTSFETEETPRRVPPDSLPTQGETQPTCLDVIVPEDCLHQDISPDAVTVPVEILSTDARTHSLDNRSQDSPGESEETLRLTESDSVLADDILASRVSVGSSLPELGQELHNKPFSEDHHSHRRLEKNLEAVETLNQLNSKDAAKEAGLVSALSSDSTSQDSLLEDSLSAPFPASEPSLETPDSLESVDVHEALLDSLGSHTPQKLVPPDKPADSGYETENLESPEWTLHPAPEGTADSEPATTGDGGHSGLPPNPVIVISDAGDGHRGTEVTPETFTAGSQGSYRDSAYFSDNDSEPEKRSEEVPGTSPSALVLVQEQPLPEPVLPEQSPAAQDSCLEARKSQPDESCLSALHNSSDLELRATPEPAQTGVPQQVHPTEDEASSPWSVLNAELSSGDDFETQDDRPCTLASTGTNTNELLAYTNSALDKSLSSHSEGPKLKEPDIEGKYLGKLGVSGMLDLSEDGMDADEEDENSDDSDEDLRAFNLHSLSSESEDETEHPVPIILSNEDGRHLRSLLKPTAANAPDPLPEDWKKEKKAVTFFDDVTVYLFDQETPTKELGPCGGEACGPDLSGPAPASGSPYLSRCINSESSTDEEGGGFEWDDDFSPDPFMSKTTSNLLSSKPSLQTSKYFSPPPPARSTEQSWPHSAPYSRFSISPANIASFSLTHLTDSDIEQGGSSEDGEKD
UniProt P07948: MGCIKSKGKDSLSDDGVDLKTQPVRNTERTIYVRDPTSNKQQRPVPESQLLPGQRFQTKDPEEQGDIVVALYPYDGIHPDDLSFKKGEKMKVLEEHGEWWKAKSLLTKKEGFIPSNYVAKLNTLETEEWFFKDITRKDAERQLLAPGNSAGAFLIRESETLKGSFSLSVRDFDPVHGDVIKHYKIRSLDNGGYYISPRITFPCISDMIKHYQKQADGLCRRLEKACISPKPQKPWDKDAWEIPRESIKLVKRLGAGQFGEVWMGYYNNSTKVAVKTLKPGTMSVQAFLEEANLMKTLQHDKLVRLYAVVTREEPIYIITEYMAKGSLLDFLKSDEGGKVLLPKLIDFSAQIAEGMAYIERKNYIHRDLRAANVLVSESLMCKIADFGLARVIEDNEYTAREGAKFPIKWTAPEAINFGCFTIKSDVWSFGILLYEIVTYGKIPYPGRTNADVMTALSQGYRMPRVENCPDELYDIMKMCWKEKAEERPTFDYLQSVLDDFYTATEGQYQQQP
UniProt Q12851: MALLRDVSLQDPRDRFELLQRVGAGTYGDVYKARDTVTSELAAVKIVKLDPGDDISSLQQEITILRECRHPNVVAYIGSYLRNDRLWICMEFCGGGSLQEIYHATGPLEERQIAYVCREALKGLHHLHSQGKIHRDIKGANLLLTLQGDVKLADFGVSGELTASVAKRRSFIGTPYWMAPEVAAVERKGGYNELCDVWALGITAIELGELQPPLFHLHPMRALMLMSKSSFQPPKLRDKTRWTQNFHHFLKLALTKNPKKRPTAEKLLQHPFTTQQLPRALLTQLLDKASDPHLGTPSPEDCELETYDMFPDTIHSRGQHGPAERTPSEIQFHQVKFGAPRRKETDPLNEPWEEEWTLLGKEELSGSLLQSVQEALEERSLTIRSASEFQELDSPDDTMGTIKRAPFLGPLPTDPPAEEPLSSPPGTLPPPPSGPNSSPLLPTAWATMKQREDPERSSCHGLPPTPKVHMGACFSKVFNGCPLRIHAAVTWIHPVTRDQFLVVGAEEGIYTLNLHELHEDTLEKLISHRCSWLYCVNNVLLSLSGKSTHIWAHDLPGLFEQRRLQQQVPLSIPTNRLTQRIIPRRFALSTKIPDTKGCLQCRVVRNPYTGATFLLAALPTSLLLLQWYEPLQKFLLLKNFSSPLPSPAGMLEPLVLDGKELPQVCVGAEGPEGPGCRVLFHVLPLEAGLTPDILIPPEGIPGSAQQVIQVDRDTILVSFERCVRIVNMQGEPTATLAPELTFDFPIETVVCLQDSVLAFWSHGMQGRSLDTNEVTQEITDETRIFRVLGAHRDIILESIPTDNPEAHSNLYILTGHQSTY

Assays:
Experiment in all cases: kinase-Nluc reporter destabilization hit call (1 = scored as downregulated) (binary); higher = compound decreases kinase abundance
Details in all cases: K562; 2-18 h
IRAK3 = IRAK3 (UniProt Q9Y616)
JAK1 = JAK1 (UniProt P23458)
LCK = LCK (UniProt P06239)
LIMK1 = LIMK1 (UniProt P53667)
LIMK2 = LIMK2 (UniProt P53671)
LMTK2 = LMTK2 (UniProt Q8IWU2)
LYN = LYN (UniProt P07948)
MAP2K1 = MAP2K1 (UniProt Q02750)
MAP2K2 = MAP2K2 (UniProt P36507)
MAP4K2 = MAP4K2 (UniProt Q12851)

Measured: kinase-Nluc reporter destabilization hit call

CC1(C)C=Cc2c(ccc(C(=O)/C=C/c3ccc(O)cc3)c2O)O1 [4-Hydroxylonchocarpin] (10 µM)
inactive: IRAK3 = 0 | JAK1 = 0 | LCK 0 | LIMK1 = 0 | LIMK2 = 0 | LMTK2 = 0 | LYN 0 | MAP2K1 = 0 | MAP2K2 = 0 | MAP4K2 = 0

CN(C)CCn1cc2cc(NC(=O)c3cccc(C(F)(F)F)n3)c(C(C)(C)O)cc2n1 (10 µM)
inactive: IRAK3 = 0 | JAK1 = 0 | LCK 0 | LIMK1 = 0 | LIMK2 = 0 | LMTK2 = 0 | LYN 0 | MAP2K1 = 0 | MAP2K2 = 0 | MAP4K2 = 0

Cc1ccc(Nc2cc(N[C@@H]3CCCC[C@@H]3N)nnc2C(N)=O)nc1C (2 µM)
inactive: IRAK3 = 0 | JAK1 = 0 | LCK 0 | LIMK1 = 0 | LIMK2 = 0 | LMTK2 = 0 | LYN 0 | MAP2K1 = 0 | MAP2K2 = 0 | MAP4K2 = 0

CC(C)n1c(CO)nc2c(F)cc(-c3nc(Nc4ccc(CN5CCNCC5)cn4)ncc3F)cc21 (10 µM)
inactive: IRAK3 = 0 | JAK1 = 0 | LCK 0 | LIMK1 = 0 | LIMK2 = 0 | LMTK2 = 0 | LYN 0 | MAP2K1 = 0 | MAP2K2 = 0 | MAP4K2 = 0

COc1ccc2nc3ccc(OC)cc3c(SCCCN)c2c1 (10 µM)
inactive: IRAK3 = 0 | JAK1 = 0 | LCK 0 | LIMK1 = 0 | LIMK2 = 0 | LMTK2 = 0 | LYN 0 | MAP2K1 = 0 | MAP2K2 = 0 | MAP4K2 = 0

CNCCOc1ccccc1C1(Nc2nccn(-c3cc(C(=O)NC4CC4)cc(F)c3C)c2=O)CC1 (10 µM)
inactive: IRAK3 = 0 | JAK1 = 0 | LCK 0 | LIMK1 = 0 | LIMK2 = 0 | LMTK2 = 0 | LYN 0 | MAP2K1 = 0 | MAP2K2 = 0 | MAP4K2 = 0

O=[N+]([O-])c1ccc(-c2nc(-c3ccc(F)cc3)c(-c3ccncc3)[nH]2)cc1 (10 µM)
inactive: IRAK3 = 0 | JAK1 = 0 | LCK 0 | LIMK1 = 0 | LIMK2 = 0 | LMTK2 = 0 | LYN 0 | MAP2K1 = 0 | MAP2K2 = 0 | MAP4K2 = 0

CC1=CC(=O)C(C(C)C)=C/C1=N/OC(=O)c1ccccc1C [Poloxin] (2.5 µM)
inactive: IRAK3 = 0 | JAK1 = 0 | LCK 0 | LIMK1 = 0 | LIMK2 = 0 | LMTK2 = 0 | LYN 0 | MAP2K1 = 0 | MAP2K2 = 0 | MAP4K2 = 0

Nc1ccc(Sc2nc3ccccc3s2)c(Cl)c1 [KRAS inhibitor-9] (10 µM)
inactive: IRAK3 = 0 | JAK1 = 0 | LCK 0 | LIMK1 = 0 | LIMK2 = 0 | LMTK2 = 0 | LYN 0 | MAP2K1 = 0 | MAP2K2 = 0 | MAP4K2 = 0

O=c1cc(N2CCOCC2)oc2c(-c3cccc4c3sc3ccccc34)cccc12 (10 µM)
inactive: IRAK3 = 0 | JAK1 = 0 | LCK 0 | LIMK1 = 0 | LIMK2 = 0 | LMTK2 = 0 | LYN 0 | MAP2K1 = 0 | MAP2K2 = 0 | MAP4K2 = 0

Fc1ccc(Cl)cc1-c1nc(Nc2ccncc2)c2nccnc2n1 (10 µM)
inactive: IRAK3 = 0 | JAK1 = 0 | LCK 0 | LIMK1 = 0 | LIMK2 = 0 | LMTK2 = 0 | LYN 0 | MAP2K1 = 0 | MAP2K2 = 0 | MAP4K2 = 0

Cn1c(N2CCO[C@@H](c3ccc(F)cc3)C2)nc(-c2ccncn2)cc1=O (10 µM)
inactive: IRAK3 = 0 | JAK1 = 0 | LCK 0 | LIMK1 = 0 | LIMK2 = 0 | LMTK2 = 0 | LYN 0 | MAP2K1 = 0 | MAP2K2 = 0 | MAP4K2 = 0

CCc1cc(Nc2nccc(-c3c(-c4ccc(OC)c(C(=O)Nc5c(F)cccc5F)c4)nc4ccccn34)n2)c(OC)cc1N1CCC(N2CCN(S(C)(=O)=O)CC2)CC1 (2.5 µM)
inactive: IRAK3 = 0 | JAK1 = 0 | LCK 0 | LIMK1 = 0 | LIMK2 = 0 | LMTK2 = 0 | LYN 0 | MAP2K1 = 0 | MAP2K2 = 0 | MAP4K2 = 0

CCCCNc1ncc(C(=O)NCc2ccc(-n3ccnc3)cc2)c(NC2CCC(O)CC2)n1 (stereo not given) (10 µM)
inactive: IRAK3 = 0 | JAK1 = 0 | LCK 0 | LIMK1 = 0 | LIMK2 = 0 | LMTK2 = 0 | LYN 0 | MAP2K1 = 0 | MAP2K2 = 0 | MAP4K2 = 0

Sorted by molecular weight (low to high): some entries from above
CC1(C)C=Cc2c(ccc(C(=O)/C=C/c3ccc(O)cc3)c2O)O1 [4-Hydroxylonchocarpin] (10 µM)
inactive: IRAK3 = 0 | JAK1 = 0 | LCK 0 | LIMK1 = 0 | LIMK2 = 0 | LMTK2 = 0 | LYN 0 | MAP2K1 = 0 | MAP2K2 = 0 | MAP4K2 = 0

COc1ccc2nc3ccc(OC)cc3c(SCCCN)c2c1 (10 µM)
inactive: IRAK3 = 0 | JAK1 = 0 | LCK 0 | LIMK1 = 0 | LIMK2 = 0 | LMTK2 = 0 | LYN 0 | MAP2K1 = 0 | MAP2K2 = 0 | MAP4K2 = 0

Cn1c(N2CCO[C@@H](c3ccc(F)cc3)C2)nc(-c2ccncn2)cc1=O (10 µM)
inactive: IRAK3 = 0 | JAK1 = 0 | LCK 0 | LIMK1 = 0 | LIMK2 = 0 | LMTK2 = 0 | LYN 0 | MAP2K1 = 0 | MAP2K2 = 0 | MAP4K2 = 0

Going on with the list:

CCn1c(N)c(C(=O)NC)c(=O)c2ccc(C#CC(C)(O)COC)nc21 (stereo not given) (10 µM)
inactive: IRAK3 = 0 | JAK1 = 0 | LCK 0 | LIMK1 = 0 | LIMK2 = 0 | LMTK2 = 0 | LYN 0 | MAP2K1 = 0 | MAP2K2 = 0 | MAP4K2 = 0

Cn1cc(-c2nc(N[C@@H]3CCCC[C@@H]3N)c(F)c3c2C(=O)NC3)cn1 [TAK-659 (hydrochloride)] (2 µM)
inactive: IRAK3 = 0 | JAK1 = 0 | LCK 0 | LIMK1 = 0 | LIMK2 = 0 | LMTK2 = 0 | LYN 0 | MAP2K1 = 0 | MAP2K2 = 0 | MAP4K2 = 0

COc1c(Nc2ncc(Cl)c(N[C@H]3[C@@H](C(N)=O)[C@@H]4C=C[C@H]3C4)n2)ccc2c1CC[C@@H](N1CCOCC1)CC2 (10 µM)
inactive: IRAK3 = 0 | JAK1 = 0 | LCK 0 | LIMK1 = 0 | LIMK2 = 0 | LMTK2 = 0 | LYN 0 | MAP2K1 = 0 | MAP2K2 = 0 | MAP4K2 = 0

COc1cc2nc(-c3cc(F)ccc3O)nc(N[C@@H]3CNC[C@H]3C(C)(C)O)c2cc1OC (2.5 µM)
inactive: IRAK3 = 0 | JAK1 = 0 | LCK 0 | LIMK1 = 0 | LIMK2 = 0 | LMTK2 = 0 | LYN 0 | MAP2K1 = 0 | MAP2K2 = 0 | MAP4K2 = 0

CC(C)(C)S(=O)(=O)c1cc2c(Nc3ccc4scnc4c3)ncnc2cc1OCCOP(=O)(O)O (2 µM)
inactive: IRAK3 = 0 | JAK1 = 0 | LCK 0 | LIMK1 = 0 | LIMK2 = 0 | LMTK2 = 0 | LYN 0 | MAP2K1 = 0 | MAP2K2 = 0 | MAP4K2 = 0

CNc1cc2c(Nc3cccc(Br)c3)ncnc2cn1 (10 µM)
inactive: IRAK3 = 0 | JAK1 = 0 | LCK 0 | LIMK1 = 0 | LIMK2 = 0 | LMTK2 = 0 | LYN 0 | MAP2K1 = 0 | MAP2K2 = 0 | MAP4K2 = 0

CN1CCC(Nc2nc(Nc3ccc(Oc4ccccc4)cc3)c3c(=O)[nH]cc(Br)c3n2)CC1 (2.5 µM)
active: LIMK1 = 1 | LIMK2 = 1
inactive: IRAK3 = 0 | JAK1 = 0 | LCK 0 | LMTK2 = 0 | LYN 0 | MAP2K1 = 0 | MAP2K2 = 0 | MAP4K2 = 0

COc1ccc(Cl)cc1N(CC(=O)Nc1ccc2c(c1)OCO2)S(=O)(=O)c1ccccc1 (2.5 µM)
inactive: IRAK3 = 0 | JAK1 = 0 | LCK 0 | LIMK1 = 0 | LIMK2 = 0 | LMTK2 = 0 | LYN 0 | MAP2K1 = 0 | MAP2K2 = 0 | MAP4K2 = 0

Cc1cccc(-c2nn3c(c2-c2ccnc4ccc(C(N)=O)cc24)CCC3)n1 [Galunisertib] (10 µM)
inactive: IRAK3 = 0 | JAK1 = 0 | LCK 0 | LIMK1 = 0 | LIMK2 = 0 | LMTK2 = 0 | LYN 0 | MAP2K1 = 0 | MAP2K2 = 0 | MAP4K2 = 0

CN1CCN(Cc2ccc(-c3cnc4[nH]cc(-c5ccc6[nH]ccc6c5)c4c3)cc2)CC1 (2.5 µM)
inactive: IRAK3 = 0 | JAK1 = 0 | LCK 0 | LIMK1 = 0 | LIMK2 = 0 | LMTK2 = 0 | LYN 0 | MAP2K1 = 0 | MAP2K2 = 0 | MAP4K2 = 0

CC(C)(CCCCCC(O)CCCCCC(C)(C)C(=O)O)C(=O)O [Bempedoic acid] (10 µM)
inactive: IRAK3 = 0 | JAK1 = 0 | LCK 0 | LIMK1 = 0 | LIMK2 = 0 | LMTK2 = 0 | LYN 0 | MAP2K1 = 0 | MAP2K2 = 0 | MAP4K2 = 0

N#Cc1cc(N2CCC(C(=O)N3N=CC[C@H]3c3cc(F)cc(F)c3)CC2)ncn1 (10 µM)
inactive: IRAK3 = 0 | JAK1 = 0 | LCK 0 | LIMK1 = 0 | LIMK2 = 0 | LMTK2 = 0 | LYN 0 | MAP2K1 = 0 | MAP2K2 = 0 | MAP4K2 = 0

Cc1cc2c(F)c(Oc3ncnn4cc(OC[C@@H](C)OC(=O)[C@H](C)N)c(C)c34)ccc2[nH]1 [Brivanib (alaninate)] (10 µM)
inactive: IRAK3 = 0 | JAK1 = 0 | LCK 0 | LIMK1 = 0 | LIMK2 = 0 | LMTK2 = 0 | LYN 0 | MAP2K1 = 0 | MAP2K2 = 0 | MAP4K2 = 0

Cc1ncc(-c2cc(F)c(O)c(F)c2)cc1-c1cc(F)c(O)c(F)c1 (10 µM)
inactive: IRAK3 = 0 | JAK1 = 0 | LCK 0 | LIMK1 = 0 | LIMK2 = 0 | LMTK2 = 0 | LYN 0 | MAP2K1 = 0 | MAP2K2 = 0 | MAP4K2 = 0

CN(C)c1ccc(/C=C2\C(=O)Nc3ccccc32)c2ccccc12 (10 µM)
inactive: IRAK3 = 0 | JAK1 = 0 | LCK 0 | LIMK1 = 0 | LIMK2 = 0 | LMTK2 = 0 | LYN 0 | MAP2K1 = 0 | MAP2K2 = 0 | MAP4K2 = 0

O=C1OC(COc2ccccc2[N+](=O)[O-])CC1Cc1ccccc1 (stereo not given) (10 µM)
inactive: IRAK3 = 0 | JAK1 = 0 | LCK 0 | LIMK1 = 0 | LIMK2 = 0 | LMTK2 = 0 | LYN 0 | MAP2K1 = 0 | MAP2K2 = 0 | MAP4K2 = 0
